Consider five substances from paper PMC12581659.

Sequences of proteins named here, by UniProt entry; tags and fusion partners are left off.
UniProt Q9Y572: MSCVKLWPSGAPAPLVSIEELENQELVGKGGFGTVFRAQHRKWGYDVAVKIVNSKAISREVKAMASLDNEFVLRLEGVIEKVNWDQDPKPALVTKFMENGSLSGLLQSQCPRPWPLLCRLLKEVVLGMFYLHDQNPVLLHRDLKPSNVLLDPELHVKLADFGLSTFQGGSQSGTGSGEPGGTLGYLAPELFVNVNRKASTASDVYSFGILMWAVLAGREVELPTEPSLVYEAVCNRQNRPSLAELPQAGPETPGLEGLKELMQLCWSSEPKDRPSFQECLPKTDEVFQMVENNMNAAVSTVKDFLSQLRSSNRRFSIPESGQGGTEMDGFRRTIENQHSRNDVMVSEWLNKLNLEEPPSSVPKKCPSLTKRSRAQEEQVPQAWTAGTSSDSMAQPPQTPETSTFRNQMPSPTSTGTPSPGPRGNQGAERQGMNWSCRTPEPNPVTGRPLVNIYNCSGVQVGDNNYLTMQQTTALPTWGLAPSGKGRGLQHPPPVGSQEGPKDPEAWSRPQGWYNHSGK
UniProt Q13619: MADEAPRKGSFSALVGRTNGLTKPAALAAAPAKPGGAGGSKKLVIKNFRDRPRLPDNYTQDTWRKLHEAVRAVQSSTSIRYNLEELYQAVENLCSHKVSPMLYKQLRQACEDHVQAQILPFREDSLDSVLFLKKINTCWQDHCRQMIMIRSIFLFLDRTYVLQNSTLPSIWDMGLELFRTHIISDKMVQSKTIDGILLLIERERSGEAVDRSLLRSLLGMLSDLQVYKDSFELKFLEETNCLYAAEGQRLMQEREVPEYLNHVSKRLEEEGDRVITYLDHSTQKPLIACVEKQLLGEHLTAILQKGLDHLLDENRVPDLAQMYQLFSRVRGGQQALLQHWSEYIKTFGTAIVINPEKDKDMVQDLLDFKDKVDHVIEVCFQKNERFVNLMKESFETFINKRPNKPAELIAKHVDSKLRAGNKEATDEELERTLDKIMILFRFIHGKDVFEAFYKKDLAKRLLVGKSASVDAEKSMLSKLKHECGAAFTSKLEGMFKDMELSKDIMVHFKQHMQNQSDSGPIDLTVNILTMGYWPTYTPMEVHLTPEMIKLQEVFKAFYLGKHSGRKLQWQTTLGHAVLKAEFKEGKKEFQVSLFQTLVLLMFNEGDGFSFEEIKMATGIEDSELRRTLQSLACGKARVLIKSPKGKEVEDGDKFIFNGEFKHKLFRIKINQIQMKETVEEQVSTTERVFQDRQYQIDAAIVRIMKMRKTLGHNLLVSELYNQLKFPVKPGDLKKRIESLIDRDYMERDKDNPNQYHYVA
UniProt Q93034: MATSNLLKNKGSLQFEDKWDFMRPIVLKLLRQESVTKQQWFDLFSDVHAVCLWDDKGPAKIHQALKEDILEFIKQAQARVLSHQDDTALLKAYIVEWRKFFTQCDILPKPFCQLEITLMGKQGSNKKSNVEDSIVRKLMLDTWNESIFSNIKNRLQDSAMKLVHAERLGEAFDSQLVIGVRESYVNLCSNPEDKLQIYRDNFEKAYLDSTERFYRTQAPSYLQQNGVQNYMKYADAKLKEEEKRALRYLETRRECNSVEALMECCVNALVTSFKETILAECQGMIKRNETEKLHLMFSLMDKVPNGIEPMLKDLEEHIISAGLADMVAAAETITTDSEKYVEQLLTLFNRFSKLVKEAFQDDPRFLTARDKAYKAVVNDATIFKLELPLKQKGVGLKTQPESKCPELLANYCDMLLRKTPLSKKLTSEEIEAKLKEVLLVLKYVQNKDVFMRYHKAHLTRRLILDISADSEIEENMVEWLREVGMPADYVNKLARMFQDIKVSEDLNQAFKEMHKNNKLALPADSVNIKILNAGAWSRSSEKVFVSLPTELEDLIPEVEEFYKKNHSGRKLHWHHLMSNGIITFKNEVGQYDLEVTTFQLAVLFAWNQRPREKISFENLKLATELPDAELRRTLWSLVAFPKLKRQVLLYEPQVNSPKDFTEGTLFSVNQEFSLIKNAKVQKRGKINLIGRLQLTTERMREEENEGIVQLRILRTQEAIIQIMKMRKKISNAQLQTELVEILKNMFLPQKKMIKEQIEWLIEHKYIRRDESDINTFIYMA
UniProt Q13620: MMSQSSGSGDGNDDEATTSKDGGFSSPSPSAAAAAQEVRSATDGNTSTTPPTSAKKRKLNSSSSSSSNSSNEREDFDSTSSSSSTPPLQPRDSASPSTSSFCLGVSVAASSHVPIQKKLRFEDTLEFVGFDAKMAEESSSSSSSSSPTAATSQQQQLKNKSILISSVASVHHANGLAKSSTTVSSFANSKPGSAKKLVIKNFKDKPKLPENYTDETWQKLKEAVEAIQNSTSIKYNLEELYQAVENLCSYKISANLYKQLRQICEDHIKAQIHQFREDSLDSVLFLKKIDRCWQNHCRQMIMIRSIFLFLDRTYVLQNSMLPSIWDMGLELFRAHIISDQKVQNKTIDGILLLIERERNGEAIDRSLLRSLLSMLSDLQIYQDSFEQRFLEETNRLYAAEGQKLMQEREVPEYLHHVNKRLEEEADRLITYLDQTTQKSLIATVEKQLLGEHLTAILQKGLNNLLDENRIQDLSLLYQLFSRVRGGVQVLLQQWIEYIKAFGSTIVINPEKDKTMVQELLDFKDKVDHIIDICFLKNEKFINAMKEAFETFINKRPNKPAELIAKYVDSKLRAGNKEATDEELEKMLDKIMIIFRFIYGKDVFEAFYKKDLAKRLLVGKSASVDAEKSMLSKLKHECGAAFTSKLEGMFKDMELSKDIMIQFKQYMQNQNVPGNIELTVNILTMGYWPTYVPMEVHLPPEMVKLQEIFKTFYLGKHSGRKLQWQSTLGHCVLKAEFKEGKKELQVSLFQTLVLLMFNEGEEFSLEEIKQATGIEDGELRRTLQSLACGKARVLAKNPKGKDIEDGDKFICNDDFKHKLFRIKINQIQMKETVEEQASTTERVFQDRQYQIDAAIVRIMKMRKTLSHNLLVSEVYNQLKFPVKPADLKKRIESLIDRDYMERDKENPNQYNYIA
UniProt O43791: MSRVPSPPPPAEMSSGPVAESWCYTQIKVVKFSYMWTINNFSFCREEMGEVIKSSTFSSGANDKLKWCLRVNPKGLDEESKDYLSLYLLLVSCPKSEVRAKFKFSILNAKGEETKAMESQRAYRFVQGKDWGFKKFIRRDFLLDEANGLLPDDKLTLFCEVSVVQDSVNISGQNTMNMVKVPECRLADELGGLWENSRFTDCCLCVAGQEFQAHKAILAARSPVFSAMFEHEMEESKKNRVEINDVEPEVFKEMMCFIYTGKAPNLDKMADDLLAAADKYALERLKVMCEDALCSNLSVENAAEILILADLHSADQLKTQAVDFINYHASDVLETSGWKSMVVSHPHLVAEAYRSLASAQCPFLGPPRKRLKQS
UniProt Q6ZWS8: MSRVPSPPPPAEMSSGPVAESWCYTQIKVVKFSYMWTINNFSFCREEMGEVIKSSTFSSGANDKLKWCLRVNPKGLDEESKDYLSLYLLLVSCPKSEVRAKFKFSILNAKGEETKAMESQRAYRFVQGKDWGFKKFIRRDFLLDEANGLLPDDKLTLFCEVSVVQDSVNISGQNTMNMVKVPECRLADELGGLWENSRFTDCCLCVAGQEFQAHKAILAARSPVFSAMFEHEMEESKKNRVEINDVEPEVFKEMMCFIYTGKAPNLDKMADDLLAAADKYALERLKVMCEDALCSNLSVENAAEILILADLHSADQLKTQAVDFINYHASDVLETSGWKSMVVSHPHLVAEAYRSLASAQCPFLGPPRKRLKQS

Test [1] deals with Flag-RIPK3 (UniProt Q9Y572). Nature of the test: co-IP; HEK293T transfected with Flag-RIPK3 and indicated HA-SPOP or Myc-Cullin; cells treated with 20 μM MG132 for 6 hours before harvesting; immunoblot. In general terms: In western blotting, separated proteins are transferred to a membrane and probed.
Test [2] addresses T1, receptor-interacting serine/threonine-protein kinase 1 (RIPK1), endogenous in MEFs (mouse (endogenous in MEFs)) (UniProt Q60855).
T1 sequence: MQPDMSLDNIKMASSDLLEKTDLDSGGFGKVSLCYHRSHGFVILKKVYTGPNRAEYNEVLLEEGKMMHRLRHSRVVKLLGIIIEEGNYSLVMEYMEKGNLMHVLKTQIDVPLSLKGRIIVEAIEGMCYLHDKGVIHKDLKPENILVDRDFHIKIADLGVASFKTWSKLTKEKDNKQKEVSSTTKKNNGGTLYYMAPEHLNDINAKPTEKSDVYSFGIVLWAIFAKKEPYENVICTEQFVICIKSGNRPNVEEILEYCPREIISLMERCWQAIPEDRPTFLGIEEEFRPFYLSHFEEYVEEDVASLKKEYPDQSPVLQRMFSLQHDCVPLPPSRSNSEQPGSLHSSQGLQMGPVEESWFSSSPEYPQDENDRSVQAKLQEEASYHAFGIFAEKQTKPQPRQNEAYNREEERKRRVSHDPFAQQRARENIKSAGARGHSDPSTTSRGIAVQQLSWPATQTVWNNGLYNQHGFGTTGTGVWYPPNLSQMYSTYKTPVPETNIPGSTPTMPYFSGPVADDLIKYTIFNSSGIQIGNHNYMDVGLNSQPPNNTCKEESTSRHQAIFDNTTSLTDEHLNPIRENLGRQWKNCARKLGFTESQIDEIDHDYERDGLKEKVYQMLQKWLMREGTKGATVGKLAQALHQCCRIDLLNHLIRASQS
Nature of the test: co-IP; endogenous proteins in SPOP+/+ and SPOP-/- MEFs; cells treated with 20 μM MG132 for 4 hours before harvesting; lysate with antibody overnight at 4°C, Protein A/G magnetic beads.

Results are given in words; binding and its absence hold for the method and conditions named. Binding seen in cells or lysates may run through a third protein. Some entries that bind do so weakly or less than the wild type.

On to “Myc-Cullin4A (from UniProt Q13619 1-759)”, for which the binding entry in test [1] is on record as “no binding”.
Take Myc-Cullin5 (from UniProt Q93034 1-780): the binding result in test [1] is listed as “no binding”.
For “Myc-Cullin4B (from UniProt Q13620 1-913)”, in test [1], the binding result is listed as “no binding”.
With “HA-SPOP (WT) (from UniProt O43791 1-374)”, the binding entry in test [1] was “binds”.
With “speckle-type POZ protein (SPOP), endogenous in MEFs (from UniProt Q6ZWS8 1-374)”, the binding result in test [2] is given as “binds”.
